# Values quoted from earlier work as cited in publication PMC11345841, “Exploring 2-Sulfonylpyrimidine Warheads as Acrylamide Surrogates for Targeted Covalent Inhibition: A BTK Story” (Journal of Medicinal Chemistry, 2024).
# Like-named read-outs stand apart in the source and are kept apart here. Further values from the same series stand in other lists.
# Test system: 468 human kinases
# Conditions: cited from earlier work; for %Control: @1000nM, ref Buhimschi et al. 2018; for Percent of Control: ref Buhimschi/Crews
smiles,measurement,setting,value
"C=CC(=O)N1CCC[C@@H](n2nc(-c3ccc(Oc4ccccc4)cc3)c3c(N)ncnc32)C1 [Compound 1g, Ibrutinib]",%Control,ABL1(F317I)-phosphorylated,67%
same,%Control,ABL1(H396P)-phosphorylated,77%
same,%Control,ABL1(T315I)-phosphorylated,99%
same,%Control,ABL1(Y253F)-phosphorylated,49%
same,%Control,AXL,73%
same,%Control,BLK,0.1%
same,%Control,CSF1R,98%
same,%Control,CTK,66%
same,%Control,DDR1,90%
same,%Control,EPHA3,89%
same,%Control,EPHA4,100%
same,%Control,EPHA6,100%
same,%Control,EPHB1,99%
same,%Control,ERBB4,0%
same,%Control,FLT1,61%
same,%Control,FLT3(ITD),55%
same,%Control,"FLT3(ITD,D835V)",58%
same,%Control,KIT(D816V),97%
same,%Control,KIT-autoinhibited,86%
same,%Control,LTK,91%
same,%Control,MST1R,89%
same,%Control,RET(V804L),93%
same,%Control,SRMS,0%
same,%Control,TRKA,67%
same,%Control,TYK2(JH2domain-pseudokinase),69%
same,%Control,VEGFR2,59%
same,Percent of Control,FLT1,61%
same,Percent of Control,JAK3(JH1domain-catalytic),0%
same,Percent of Control,TIE1,61%
